This is one part of the list. Shown are side measurements of this screen, not its main read-out; they come without a call. Compounds called inactive in the main read-out are mostly missing here. Words in brackets tell the shape of the fitted curve; partial curves, single points and poor fits give uncertain potencies.
Test: qHTS Assay for Lipid Storage Modulators in Drosophila S3 Cells;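 as to cell number change: cells counted by Cell Tracker Red CMTPX staining in the red channel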
Settings: BODIPY lipid droplet fluorescence, 18-24 h; for cell number change: measured here: cell count max response, cells fed with added oleic acid
Outline: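 Drosophila S3 cells loaded with oleic acid (400 uM, as added) and compounds at several concentrations; lipid droplets imaged by 488-nm laser-scanning cytometry, 500–530 nm intensity and object ratio to cell channel. Percent activity normalized to 20 uM Triacsin C.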

[1] = measured here: lipid fluorescence (Fed channel) AC50, cells fed with added oleic acid
[2] = measured here: cell number channel AC50, cells fed with added oleic acid

SMILES | cell number change [%] | AC50 [1] | AC50 [2]
CCc1ccccc1N(C(C)=O)c1nc(CCl)cs1 | -0.0937 | 0.82 µM [rising, single point] | 
Cc1cccc(NC(=O)C2CCN(S(=O)(=O)c3ccc4ccccc4c3)CC2)n1 | 5.49 |  | 
CN(C)CCCNC(=O)/C=C/c1ccc2c(c1)OCO2 | 4.4 |  | 
O=C(N/N=C\c1ccc(OC(=O)c2cccs2)cc1)c1ccc(Cl)cc1 | -3.17 | 0.00517 µM [falling, full curve, poor fit] | 
CC(=O)c1ccc(Oc2cc(C)nc(N3CCOCC3)n2)cc1 | -16.7 | 23.1 µM [rising, single point] | 0.651 µM [falling, full curve, poor fit]
CN(CC(=O)NC1CCCCCC1)S(=O)(=O)c1ccc(Br)cc1 | 15.1 | 5.8 µM [rising, partial curve] | 
CC(=O)Nc1ccc(S(=O)(=O)NCc2cccnc2)cc1 | -17.1 | 0.411 µM [falling, full curve] | 0.651 µM [falling, full curve, poor fit]
CS(=O)(=O)N(CC(=O)N1CCOCC1)c1ccc2c3c(cccc13)CC2 | -24.5 | 29.1 µM [falling, single point] | 
Cc1ccc(C(C)NC(=O)c2ccncc2)c(C)c1 (stereo unspecified) | -37.8 | 29.1 µM [falling, single point] | 
COc1cccc(CNC(=O)CN2C(=O)CSc3ccc(S(=O)(=O)N4CCCC4)cc32)c1 | -10.5 | 0.651 µM [falling, single point] | 
CCN1CCc2c(C#N)c(NCc3ccccc3)nc(N(CC)CC)c2C1 | -33.2 | 20.6 µM [falling, single point] | 29.1 µM [falling, single point]
CC/C(=N\NC(=O)OC)c1ccc(OC(F)F)cc1 |  |  | 0.0731 µM [rising, partial curve, poor fit]
COc1ccc(C2C(=O)N(C3CCCCC3)CC(=O)N2C2CCCCC2)cc1 (stereo unspecified) |  |  | 0.58 µM [falling, full curve]
O=C(Nc1cccc(NC(=O)c2sc3ccccc3c2Cl)c1)c1ccco1 | -6.77 |  | 
CCc1ccc(OC)c(S(=O)(=O)N2CCN(C(=O)c3ccco3)CC2)c1 | -11.9 |  | 
O=C(Nc1ccc(F)cc1)c1nc[nH]c1C(=O)Nc1ccc([N+](=O)[O-])cc1 | 1.65 | 1.64 µM [falling, partial curve] | 
CCCCNC(=O)c1ccc(CNS(=O)(=O)c2ccc(Br)cc2)cc1 | 50.6 |  | 
O=C(OCC(=O)N1CCCC1=O)c1cc(S(=O)(=O)N2CCOCC2)ccc1F | -26.2 | 29.1 µM [falling, single point] | 
Cn1c(SCC(=O)c2ccccc2)nnc1-c1ccncc1 | -13 | 29.1 µM [rising, single point] | 
COc1ccc(NS(=O)(=O)/C=C/c2ccc(OC)c(OC)c2)cc1 | 31.9 | 29.1 µM [rising, single point] | 29.1 µM [rising, single point]

SMILES | cell number change [%] | AC50 [1] | AC50 [2]
COC(=O)[C@H](Cc1ccccc1)NC(=O)N(C)Cc1ccccc1 | -31.2 | 0.731 µM [falling, full curve, poor fit] | 
CC(=O)c1ccc(S(=O)(=O)NCc2cccnc2)cc1 |  |  | 0.82 µM [rising, full curve, poor fit]
COc1ccc(Cc2nnc3c4cnn(C)c4ncn23)cc1 | 10 |  | 
CN1C(=S)SC(/[N+]([O-])=C\c2ccco2)C1(C)C (stereo unspecified) | 2.81 |  | 
CCN1CCN(C(=O)c2ccc(N3CC4CC(C3)c3cccc(=O)n3C4)c(NC(=O)c3cc(OC)cc(OC)c3)c2)CC1 (stereo unspecified) | 6.26 | 6.51 µM [rising, single point] | 
O=C(Nc1ccc(N2CCN(C(=O)c3ccc(Cl)cc3)CC2)cc1)c1cc2ccccc2o1 | -21.6 | 23.1 µM [falling, single point] | 
COc1ccc(N2CCN(C(=O)c3cn(Cc4ccccc4)nc3-c3cccnc3)CC2)cc1 | -11.4 |  | 
O=C(NC(=S)Nc1ccc(N2CCOCC2)cc1)c1cccs1 | -27.5 | 18.4 µM [falling, partial curve, poor fit] | 
COc1cccc(NS(=O)(=O)c2ccc(OC)c(OC)c2)c1 | -12.7 | 13 µM [rising, single point] | 
COc1cccc(NC(=O)COC(=O)c2c(C)noc2C)c1 | 7.27 | 5.8 µM [rising, full curve] | 0.00517 µM [falling, full curve, poor fit]
COc1ccc(C(F)(F)F)cc1N/C=C/c1nnnn1-c1ccc2ccccc2c1 | 22.5 | 29.1 µM [rising, single point] | 
N#CCc1nc(CSc2nc3ccccc3s2)cs1 |  | 5.8 µM [rising, single point] | 6.51 µM [rising, single point]
CC(C)OCCCNC(=O)c1ccccc1Oc1ccccc1 | 11.2 | 29.1 µM [rising, single point] | 
Cc1ccnc(NC(=O)c2ccc3c(c2)C(=O)N(CC2CCCO2)C3=O)c1 (stereo unspecified) | -12.7 |  | 1.64 µM [falling, single point]
C=CCn1c(C)nc2c(cnn2-c2ccccc2)c1=O | 36.8 | 2.59 µM [falling, partial curve, poor fit] | 32.6 µM [rising, single point]
O=C(Nc1ccc(Nc2ccccc2)cc1)c1c(F)c(F)c(F)c(F)c1F | -21.4 | 6.51 µM [falling, single point] | 
CCCS(=O)(=O)c1csc(C(=O)OC)c1N | 12.1 | 0.231 µM [rising, full curve, poor fit] | 
COc1ccc(C2(C)CC(C)(C)Nc3ccccc32)cc1 (stereo unspecified) | -7.66 |  | 
CC(=O)CCSc1nnc(-c2cccc(S(=O)(=O)N3CCOCC3)c2)o1 | 5.01 | 0.517 µM [falling, single point] | 0.517 µM [falling, single point]
O=C(CN1C(=O)C(=O)N(Cc2ccccc2)C1=O)c1ccc[nH]1 | 30.5 | 25.9 µM [rising, partial curve] | 0.00411 µM [rising, full curve, poor fit]

Rewritten as tab-separated lines: entries from further up
SMILES	cell number change [%]	AC50 [1]	AC50 [2]
CN1C(=S)SC(/[N+]([O-])=C\c2ccco2)C1(C)C (stereo unspecified)	2.81		
CCN1CCN(C(=O)c2ccc(N3CC4CC(C3)c3cccc(=O)n3C4)c(NC(=O)c3cc(OC)cc(OC)c3)c2)CC1 (stereo unspecified)	6.26	6.51 µM [rising, single point]	

(further entries)

SMILES | cell number change [%] | AC50 [1] | AC50 [2]
COc1cc2ccccc2cc1C(=O)N(CCN(C)C)c1nc2c(F)cccc2s1 | 29.7 | 1.3 µM [rising, partial curve] | 
CC(=O)Nc1ccc(S(=O)(=O)NC2(C(F)(F)F)N=C(c3ccccc3)NC2=O)cc1 (stereo unspecified) | -107 | 13 µM [falling, partial curve] | 29.1 µM [falling, partial curve]
COc1cc(NC(=O)Cn2cnc3sc(C)c(S(=O)(=O)N4CCN(C)CC4)c3c2=O)cc(OC)c1OC |  |  | 0.116 µM [falling, partial curve, poor fit]
Cc1ccc(Nc2c(-c3ccc(N4CCOCC4)cc3)nc3ncccn23)cc1C | 12 | 4.11 µM [rising, single point] | 
CCCCN(CCCNC(=O)C1CCN(S(=O)(=O)CC)CC1)c1ccccc1 | -24.4 | 25.9 µM [falling, single point] | 
Cc1cc(N/N=C/c2cccc(Cl)c2)nc(NCc2ccccc2)n1 | -91.2 | 0.82 µM [rising, partial curve] | 29.1 µM [falling, single point]
CCN(CC)C(=O)CSc1nnc(COc2cccc(C)c2)n1C | -26.1 | 10.3 µM [falling, partial curve] | 
COc1ccc(CNC(=O)CSc2nc3ccc(C)cc3[nH]2)cc1OC | -15.3 |  | 0.731 µM [rising, single point]
CN(CCCNC(=O)c1cn(C)c2ccc(S(=O)(=O)N(C)C)cc2c1=O)c1ccccc1 | -21.3 | 20.6 µM [falling, single point] | 
CCN(Cc1ccccc1)c1ccc(N=Nc2nn(C)c(C)c2[N+](=O)[O-])cc1 | -92.1 | 1.64 µM [rising, partial curve] | 29.1 µM [falling, single point]
CC1(c2ccc(OC(F)F)cc2)NC(=O)N(CC(=O)Nc2ccc(OC(F)F)cc2)C1=O (stereo unspecified) | -11.8 | 5.62 µM [falling, single point] | 
CCOc1ccc(-n2c(Cc3cc(=O)[nH]c(=O)[nH]3)nnc2SCC(=O)NC2CCCC2)cc1 | 5.94 | 0.517 µM [falling, partial curve, poor fit] | 
CC(C)CN(C(=O)CN1CCN(S(=O)(=O)c2ccc3ccccc3c2)CC1)c1c(N)n(CC(C)C)c(=O)[nH]c1=O | 4.74 | 29.1 µM [falling, single point] | 
COc1ccc(CCNC(C(=O)Nc2cc(C)cc(C)c2)c2ccccc2)cc1 (stereo unspecified) | 22.9 | 5.8 µM [rising, single point] | 
Oc1ccccc1Cn1nnc2ccccc21 | -30 | 29.1 µM [falling, single point] | 20.6 µM [falling, single point]
O=C(CSc1nnc(-c2ccccc2)o1)Oc1ccc(Br)cc1 |  | 0.58 µM [falling, single point] | 0.291 µM [falling, partial curve, poor fit]
O=C(Nc1ccccc1)Nc1nnc(-c2ccccc2)o1 | -13.4 |  | 
O=C(N/N=C/c1ccc2nccnc2c1)c1cccc([N+](=O)[O-])c1 | 25.2 |  | 
CCOC(=O)c1cnc2c(C)cccc2c1Nc1ccc(N2CCOCC2)cc1 | -18 | 16.4 µM [falling, partial curve, poor fit] | 3.66 µM [rising, single point]

Reference: PubChem BioAssay AID2685 (National Center for Advancing Translational Sciences (NCATS), 2010)
